Source: PubChem BioAssay AID652243 (Drosophila RNAi Screening Center, 2013)

Screen: 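Fly regulators of androgen-dependent reporter output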 (primary screen)
Cell system: Drosophila S2R+ cells
Knock-down reagent: long dsRNA against Drosophila genes
Duration: 72 h (48 h, then 24 h hormone)
Treatment: synthetic androgen R1881 at 10 nM for 24 h
Measured: 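Per-well raw luminescence of the androgen-driven firefly reporter and of the Renilla control, two replicates each, without normalisation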
Direction: firefly reporter light: higher = more light from androgen-responsive reporter; Renilla control light: higher = more constitutive control signal (cell number, transfection)
Call rule: 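Hit when the log firefly-to-Renilla ratio dropped or increased by a fixed fold versus the mean of GFP or LacZ controls across duplicate plates; lowering cut given as 1.5 and as 3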
Meaning of the calls: active = hit: reporter lowered or raised; inactive = no hit
In all, the deposit lists about 24,000 reagents; this is a random part of those that have a named target and a result. In the full data, 246 (1%) got an active call. 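Plates not normalised; calls are printed but the firefly/Renilla ratio behind them is not deposited; fold cut for lowering reported inconsistently.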 Raw values vary from plate to plate and are shown uncorrected. A plus sign joins genes that one reagent is predicted to hit. No sequences are given here. Not stated in the record: the amount of reagent.

gene	DRSC id	firefly reporter light, replicate 1	firefly reporter light, replicate 2	Renilla control light, replicate 1	Renilla control light, replicate 2	activity call
CR18275 + CR18166 + CG32817	DRSC17249	3.63e5	5.13e5	7.73e5	4.64e5	inactive
Spf30	DRSC11976	54942	43802	1.54e6	1.60e6	inactive
Oda	DRSC07626	3.27e5	2.44e5	1.32e6	1.26e6	inactive
Oda	DRSC28076	5.34e5	5.78e5	1.37e6	1.17e6	inactive
Dfd	DRSC12593	1.36e5	1.62e5	2.14e6	2.76e6	inactive
Dfd	DRSC27981	7.27e5	4.93e5	1.87e6	1.03e6	inactive
Naa30B	DRSC08245	75088	1.12e5	1.40e6	1.49e6	inactive
CG11598	DRSC14331	2.02e5	1.58e5	2.81e6	3.11e6	inactive
PH4alphaNE2	DRSC16544	2.60e5	1.96e5	2.11e6	2.92e6	inactive
PH4alphaNE2	DRSC24689	4.12e5	3.33e5	4.58e5	5.26e5	inactive
alpha4GT1	DRSC00488	1.07e6	1.21e6	1.50e6	1.36e6	inactive
CG18449	DRSC06754	3.98e5	3.35e5	2.08e6	1.42e6	inactive
CG7565	DRSC10881	7.04e5	6.39e5	1.22e6	1.27e6	inactive
CG34357	DRSC12211	61769	1.18e5	1.53e6	2.00e6	inactive
CG34357	DRSC12334	60655	69876	1.42e6	1.05e6	inactive
CG34357	DRSC23031	5.11e5	4.47e5	1.89e6	2.23e6	inactive
CG34357	DRSC28043	6.79e5	4.54e5	2.23e6	1.69e6	inactive
CG34357	DRSC28595	8.10e5	6.00e5	1.36e6	1.27e6	inactive
eIF3d1	DRSC16938	1.71e5	2.66e5	1.56e6	1.70e6	inactive
CG11309	DRSC11650	45506	56572	3.60e5	3.71e5	inactive
CG11309	DRSC28126	8.88e5	9.51e5	1.51e6	1.45e6	inactive
Hsp60B	DRSC00542	6.33e5	6.18e5	1.61e6	1.41e6	inactive
Ufc1	DRSC07156	1.27e6	1.31e6	2.21e6	1.73e6	inactive
CG13716	DRSC08325	4.74e5	5.69e5	2.96e6	2.86e6	inactive
CG13716	DRSC22815	4.49e5	9.20e5	7.87e5	1.44e6	inactive
lncRNA:roX2	DRSC22237	6.75e5	5.58e5	2.42e6	2.09e6	inactive
lncRNA:roX2	DRSC27049	3.17e5	3.19e5	7.98e5	5.95e5	inactive
Polr2C	DRSC03415	1.15e6	3.59e5	7.05e5	6.68e5	inactive
Polr2C	DRSC23584	3.73e5	3.09e5	9.43e5	4.03e5	inactive
ppk22	DRSC22093	9.10e5	8.56e5	1.85e6	1.93e6	inactive
CG34453	DRSC38689	8.27e5	7.21e5	1.83e6	2.04e6	inactive
CG12374	DRSC06143	2.88e5	2.27e5	1.96e6	1.83e6	inactive
DCP1	DRSC04091	9.04e5	7.73e5	2.42e6	2.68e6	inactive
DCP1	DRSC29844	3.97e5	4.11e5	7.18e5	1.10e6	inactive
CG33490	DRSC10587	9.94e5	6.90e5	1.01e6	9.34e5	inactive
BomBc1	DRSC06501	81536	1.39e5	1.45e6	1.45e6	inactive
BomBc1	DRSC23723	5.56e5	4.70e5	4.78e5	4.79e5	inactive
CG11791	DRSC14391	43275	54056	5.99e5	8.14e5	inactive
CG11791	DRSC29499	4.69e5	4.14e5	6.92e5	6.92e5	inactive
CG13062	DRSC09945	2.94e5	1.70e5	1.88e6	1.56e6	inactive
CG13062	DRSC28840	2.84e5	2.24e5	6.33e5	6.41e5	inactive
CG13062	DRSC39057	2.56e5	2.36e5	6.85e5	1.03e6	inactive
Gen	DRSC09679	1.10e6	8.37e5	1.66e6	1.22e6	inactive
CG1792	DRSC15290	1.21e5	1.74e5	1.48e6	2.39e6	inactive
CG1792	DRSC28745	5.15e5	4.52e5	9.78e5	1.09e6	inactive
l(3)72Dr	DRSC10478	2.09e5	1.61e5	1.95e6	1.68e6	inactive
CG9997	DRSC16591	2.34e5	2.82e5	2.09e6	3.36e6	inactive
CG9997	DRSC29613	2.74e5	4.07e5	6.00e5	6.00e5	inactive
Gbeta76C	DRSC11174	41218	30782	4.27e5	3.52e5	inactive
CAH4	DRSC22433	4.20e5	7.00e5	1.13e6	1.86e6	inactive
Nepl15	DRSC15630	64567	76904	5.32e5	5.26e5	inactive
CG3527	DRSC18307	3.09e5	2.53e5	4.03e6	3.52e6	inactive
CG3527	DRSC28450	4.84e5	6.10e5	8.85e5	1.26e6	inactive
Ubc2	DRSC01137	3.00e5	3.69e5	3.04e5	3.41e5	inactive
Ubc2	DRSC03468	1.21e5	90150	1.15e6	8.35e5	inactive
Ubc2	DRSC29062	6.30e5	5.02e5	1.80e6	1.71e6	inactive
wmd	DRSC04436	7.05e5	6.22e5	1.23e6	1.26e6	inactive
wmd	DRSC29254	8.76e5	6.81e5	1.42e6	1.24e6	inactive
